Many values rest on one well or one pass, so single values are uncertain.

Sequences of proteins named here, by UniProt entry; tags and fusion partners are left off. A change or cut given only in a name is not applied to a line headed by its entry.
UniProt Q14011: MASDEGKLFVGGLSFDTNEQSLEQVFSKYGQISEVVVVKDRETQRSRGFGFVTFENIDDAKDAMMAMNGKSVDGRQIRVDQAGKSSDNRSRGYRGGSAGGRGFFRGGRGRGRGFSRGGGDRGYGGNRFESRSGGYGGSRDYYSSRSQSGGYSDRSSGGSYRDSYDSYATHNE
UniProt Q86VX2, whole entry: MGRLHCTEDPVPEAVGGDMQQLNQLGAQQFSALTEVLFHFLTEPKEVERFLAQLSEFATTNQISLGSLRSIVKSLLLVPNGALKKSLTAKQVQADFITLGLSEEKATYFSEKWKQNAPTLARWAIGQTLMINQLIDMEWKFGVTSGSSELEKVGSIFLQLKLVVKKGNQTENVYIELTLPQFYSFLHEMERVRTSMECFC
UniProt P01023, whole entry: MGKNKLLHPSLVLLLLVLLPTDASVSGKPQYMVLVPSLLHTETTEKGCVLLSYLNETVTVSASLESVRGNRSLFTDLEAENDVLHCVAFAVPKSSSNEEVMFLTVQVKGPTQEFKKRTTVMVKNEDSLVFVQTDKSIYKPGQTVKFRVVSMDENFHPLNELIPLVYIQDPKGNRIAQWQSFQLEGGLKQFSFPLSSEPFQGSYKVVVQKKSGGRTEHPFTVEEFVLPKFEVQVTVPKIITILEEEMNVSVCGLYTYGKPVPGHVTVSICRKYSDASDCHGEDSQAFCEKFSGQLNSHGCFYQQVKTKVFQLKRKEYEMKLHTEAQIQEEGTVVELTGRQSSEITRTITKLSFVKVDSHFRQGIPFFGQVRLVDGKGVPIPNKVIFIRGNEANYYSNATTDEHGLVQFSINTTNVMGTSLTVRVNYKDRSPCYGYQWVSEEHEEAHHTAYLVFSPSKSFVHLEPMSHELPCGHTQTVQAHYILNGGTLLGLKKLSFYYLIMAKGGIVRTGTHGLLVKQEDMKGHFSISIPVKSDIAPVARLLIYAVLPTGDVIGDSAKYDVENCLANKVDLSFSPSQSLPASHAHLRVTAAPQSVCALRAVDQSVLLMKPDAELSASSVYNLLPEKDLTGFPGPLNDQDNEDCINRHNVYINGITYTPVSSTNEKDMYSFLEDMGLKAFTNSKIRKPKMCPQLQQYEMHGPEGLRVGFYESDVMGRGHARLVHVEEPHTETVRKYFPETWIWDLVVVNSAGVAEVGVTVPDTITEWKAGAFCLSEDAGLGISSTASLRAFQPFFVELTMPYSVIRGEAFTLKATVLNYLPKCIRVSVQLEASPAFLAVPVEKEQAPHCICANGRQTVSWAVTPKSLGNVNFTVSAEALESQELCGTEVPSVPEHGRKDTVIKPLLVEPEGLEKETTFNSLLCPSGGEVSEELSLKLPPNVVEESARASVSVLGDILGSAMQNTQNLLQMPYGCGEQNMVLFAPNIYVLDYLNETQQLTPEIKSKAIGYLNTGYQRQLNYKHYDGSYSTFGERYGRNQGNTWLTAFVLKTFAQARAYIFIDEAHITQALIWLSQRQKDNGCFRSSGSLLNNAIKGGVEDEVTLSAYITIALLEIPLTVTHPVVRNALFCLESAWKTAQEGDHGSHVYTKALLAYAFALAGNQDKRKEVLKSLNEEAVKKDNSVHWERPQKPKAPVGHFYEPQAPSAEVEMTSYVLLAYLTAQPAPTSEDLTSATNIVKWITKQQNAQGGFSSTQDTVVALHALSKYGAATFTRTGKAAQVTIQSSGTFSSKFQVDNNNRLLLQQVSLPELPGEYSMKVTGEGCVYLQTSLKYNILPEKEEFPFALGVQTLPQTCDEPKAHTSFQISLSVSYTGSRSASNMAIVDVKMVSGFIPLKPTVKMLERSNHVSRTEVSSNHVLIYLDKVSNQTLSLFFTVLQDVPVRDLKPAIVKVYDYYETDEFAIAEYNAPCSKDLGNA
UniProt Q9BWF3: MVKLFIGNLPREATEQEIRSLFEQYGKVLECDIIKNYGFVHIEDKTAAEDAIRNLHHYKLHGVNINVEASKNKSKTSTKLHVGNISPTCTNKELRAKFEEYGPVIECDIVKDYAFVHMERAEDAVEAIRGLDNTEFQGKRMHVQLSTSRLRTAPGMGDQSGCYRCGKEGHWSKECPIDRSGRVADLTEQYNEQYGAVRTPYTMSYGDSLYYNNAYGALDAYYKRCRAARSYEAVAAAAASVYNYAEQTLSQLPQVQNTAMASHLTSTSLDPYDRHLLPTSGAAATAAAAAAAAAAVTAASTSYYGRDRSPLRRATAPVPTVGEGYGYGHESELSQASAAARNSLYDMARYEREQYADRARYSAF
UniProt Q9UMR5: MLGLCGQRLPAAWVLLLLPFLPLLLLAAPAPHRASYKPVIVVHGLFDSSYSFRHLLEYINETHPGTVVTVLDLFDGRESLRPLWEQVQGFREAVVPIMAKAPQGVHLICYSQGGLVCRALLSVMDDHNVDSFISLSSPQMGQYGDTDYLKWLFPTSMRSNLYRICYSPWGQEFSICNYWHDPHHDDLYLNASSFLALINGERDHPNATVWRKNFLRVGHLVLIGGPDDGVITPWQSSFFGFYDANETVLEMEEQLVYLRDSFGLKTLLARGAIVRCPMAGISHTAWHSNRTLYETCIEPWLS
UniProt P51570: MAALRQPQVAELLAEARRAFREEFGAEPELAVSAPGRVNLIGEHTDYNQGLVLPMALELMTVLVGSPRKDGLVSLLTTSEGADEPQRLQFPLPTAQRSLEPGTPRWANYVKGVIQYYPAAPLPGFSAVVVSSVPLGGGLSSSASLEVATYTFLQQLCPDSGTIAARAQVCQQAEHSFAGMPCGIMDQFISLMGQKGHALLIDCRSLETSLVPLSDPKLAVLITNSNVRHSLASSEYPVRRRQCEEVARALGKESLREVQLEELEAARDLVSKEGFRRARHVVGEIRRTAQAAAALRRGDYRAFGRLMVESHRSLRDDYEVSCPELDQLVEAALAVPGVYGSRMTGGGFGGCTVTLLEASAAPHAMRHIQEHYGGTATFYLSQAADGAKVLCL
UniProt O14641: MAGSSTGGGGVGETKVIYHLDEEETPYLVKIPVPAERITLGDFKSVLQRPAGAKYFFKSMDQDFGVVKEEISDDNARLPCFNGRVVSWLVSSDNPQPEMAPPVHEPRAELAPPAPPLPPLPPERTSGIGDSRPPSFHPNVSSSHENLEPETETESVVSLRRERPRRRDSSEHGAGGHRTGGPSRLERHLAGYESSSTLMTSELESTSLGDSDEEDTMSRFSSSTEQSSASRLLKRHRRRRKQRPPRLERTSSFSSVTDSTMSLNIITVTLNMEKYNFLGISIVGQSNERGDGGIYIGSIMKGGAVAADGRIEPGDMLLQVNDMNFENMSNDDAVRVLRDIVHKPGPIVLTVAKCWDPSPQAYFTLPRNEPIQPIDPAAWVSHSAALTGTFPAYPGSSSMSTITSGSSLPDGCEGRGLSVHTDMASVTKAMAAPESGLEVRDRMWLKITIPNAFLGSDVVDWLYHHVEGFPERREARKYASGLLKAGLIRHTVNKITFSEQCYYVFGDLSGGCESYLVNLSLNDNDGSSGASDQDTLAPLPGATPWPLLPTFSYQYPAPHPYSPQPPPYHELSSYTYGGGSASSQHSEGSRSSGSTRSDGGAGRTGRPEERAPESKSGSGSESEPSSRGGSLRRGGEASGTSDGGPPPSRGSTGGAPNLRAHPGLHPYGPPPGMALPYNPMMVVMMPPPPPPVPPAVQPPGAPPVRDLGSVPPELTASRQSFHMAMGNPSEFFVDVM
UniProt Q9Y312: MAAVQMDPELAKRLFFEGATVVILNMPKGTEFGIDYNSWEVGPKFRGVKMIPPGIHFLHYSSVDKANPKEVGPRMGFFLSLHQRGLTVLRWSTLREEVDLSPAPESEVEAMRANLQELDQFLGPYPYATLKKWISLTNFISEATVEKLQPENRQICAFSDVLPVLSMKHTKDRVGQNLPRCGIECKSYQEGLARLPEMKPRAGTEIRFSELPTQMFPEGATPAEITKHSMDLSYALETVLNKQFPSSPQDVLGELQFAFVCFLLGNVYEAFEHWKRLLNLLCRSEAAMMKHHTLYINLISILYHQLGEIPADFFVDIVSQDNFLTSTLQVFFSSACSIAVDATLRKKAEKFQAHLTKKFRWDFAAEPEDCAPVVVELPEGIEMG
UniProt Q9UKK3: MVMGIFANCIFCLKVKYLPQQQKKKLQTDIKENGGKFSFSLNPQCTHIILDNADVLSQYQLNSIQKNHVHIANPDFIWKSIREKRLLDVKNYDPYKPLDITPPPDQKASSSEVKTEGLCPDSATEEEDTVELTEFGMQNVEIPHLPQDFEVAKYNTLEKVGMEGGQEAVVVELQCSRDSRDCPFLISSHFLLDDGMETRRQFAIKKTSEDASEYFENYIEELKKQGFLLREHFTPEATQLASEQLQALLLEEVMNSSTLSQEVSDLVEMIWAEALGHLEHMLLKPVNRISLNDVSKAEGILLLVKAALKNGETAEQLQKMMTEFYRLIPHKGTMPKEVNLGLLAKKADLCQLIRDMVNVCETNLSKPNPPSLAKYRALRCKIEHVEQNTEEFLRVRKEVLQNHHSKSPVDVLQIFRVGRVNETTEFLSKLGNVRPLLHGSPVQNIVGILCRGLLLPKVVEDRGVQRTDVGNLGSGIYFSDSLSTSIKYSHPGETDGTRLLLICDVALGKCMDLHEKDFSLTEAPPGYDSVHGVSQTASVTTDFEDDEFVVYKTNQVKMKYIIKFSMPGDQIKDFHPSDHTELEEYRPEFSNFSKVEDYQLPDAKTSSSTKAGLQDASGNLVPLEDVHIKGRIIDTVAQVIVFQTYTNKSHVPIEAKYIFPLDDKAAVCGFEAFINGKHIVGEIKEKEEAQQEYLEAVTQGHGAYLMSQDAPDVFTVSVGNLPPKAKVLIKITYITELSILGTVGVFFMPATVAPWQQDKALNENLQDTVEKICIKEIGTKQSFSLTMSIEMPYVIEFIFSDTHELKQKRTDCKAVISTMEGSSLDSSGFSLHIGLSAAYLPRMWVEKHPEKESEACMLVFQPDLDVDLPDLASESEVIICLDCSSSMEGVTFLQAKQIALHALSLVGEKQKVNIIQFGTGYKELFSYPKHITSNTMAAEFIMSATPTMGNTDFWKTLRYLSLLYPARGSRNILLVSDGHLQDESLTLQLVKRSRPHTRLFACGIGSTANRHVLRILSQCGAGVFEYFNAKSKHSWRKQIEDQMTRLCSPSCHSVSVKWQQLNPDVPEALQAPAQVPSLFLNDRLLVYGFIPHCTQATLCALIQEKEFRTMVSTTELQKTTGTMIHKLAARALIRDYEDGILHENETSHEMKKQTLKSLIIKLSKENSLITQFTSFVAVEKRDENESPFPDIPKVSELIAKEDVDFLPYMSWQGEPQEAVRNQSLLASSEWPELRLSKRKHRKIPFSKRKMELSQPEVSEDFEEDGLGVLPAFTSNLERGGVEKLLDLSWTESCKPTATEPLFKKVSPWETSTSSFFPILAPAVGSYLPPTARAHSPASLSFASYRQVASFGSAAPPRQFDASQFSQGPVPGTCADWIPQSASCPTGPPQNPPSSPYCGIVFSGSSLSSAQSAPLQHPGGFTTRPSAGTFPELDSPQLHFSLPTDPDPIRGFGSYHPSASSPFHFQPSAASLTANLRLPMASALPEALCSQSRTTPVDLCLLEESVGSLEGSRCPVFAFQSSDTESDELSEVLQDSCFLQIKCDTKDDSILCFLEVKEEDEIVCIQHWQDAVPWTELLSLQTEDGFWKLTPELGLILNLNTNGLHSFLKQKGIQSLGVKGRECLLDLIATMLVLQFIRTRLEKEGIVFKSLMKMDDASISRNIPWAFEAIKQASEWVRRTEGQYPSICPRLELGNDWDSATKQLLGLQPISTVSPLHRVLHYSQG

Compound in this experiment: [O-][N+](C(C1=C(C(O)=C2)NC(C(C=C3)=CC=C3Cl)C4C1C=CC4)=C2Cl)=O
Kind of experiment: melting temperature shift (compound 7 minus DMSO); higher = compound stabilises the protein. The conditions noted are these: 10 µM. As to the method:
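Thermal proteome profiling (TMT mass spectrometry) in intact DAOY medulloblastoma cells or DAOY lysates treated with 10 µM compound 7 or DMSO, heated at 10 temperatures from 40.5 to 73.8 °C for 3 min. Melting curves were fitted with the Bioconductor TPP package, and the melting point difference between compound and vehicle is reported per protein (single curve per condition).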

Setting [1] is: system: DAOY cell lysate, treatment time: 20 min, 4 °C.
[2] abbreviates: system: intact DAOY cells, treatment time: 90 min, 37 °C.

Consider MORC3 (UniProt Q14149), for which the melting temperature shift runs as follows: under setting [1], -0.779 °C; under setting [2], 0.562 °C.

On to UniProt P24390, for which the melting temperature shift under setting [2] is -1.19 °C.

As for COPS3 (UniProt Q9UNS2), the melting temperature shift under setting [2] was 0.0929 °C.

FECH (UniProt P22830): the melting temperature shift by setting is: under setting [1], -1.18 °C; under setting [2], -0.361 °C.

As for ETF1 (UniProt P62495), the melting temperature shift was -0.299 °C under setting [1] and -0.617 °C under setting [2].

For CIRBP (UniProt Q14011), the melting temperature shift runs as follows: under setting [1], 0.545 °C; under setting [2], 0.223 °C.

For UniProt Q86VX2, the melting temperature shift reads like this: under setting [1], -1.34 °C; under setting [2], -0.77 °C.

As for ATIC (UniProt P31939), the melting temperature shift was -0.346 °C under setting [1] and -1.03 °C under setting [2].

Take DCAF6 (UniProt Q58WW2): the melting temperature shift was determined as 0.0724 °C under setting [1] and 1.26 °C under setting [2].

SAFB2 (UniProt Q14151): the melting temperature shift runs as follows: under setting [1], 0.99 °C; under setting [2], 0.487 °C.

With UniProt P01023, the melting temperature shift is -0.547 °C under setting [1] and 4.43 °C under setting [2].

In the case of TFIP11 (UniProt Q9UBB9), the melting temperature shift under setting [1] stood at 0.0926 °C and the melting temperature shift under setting [2] came to 0.862 °C.

Turning to UniProt P51805, the melting temperature shift under setting [2] was -0.684 °C.

Regarding UniProt Q99712, the melting temperature shift under setting [2] was 0.728 °C.

As for UniProt Q9P2K5, the melting temperature shift under setting [1] was found to be 0.229 °C and the melting temperature shift under setting [2] turned out to be 0.18 °C.

On to PEX3 (UniProt P56589), for which the melting temperature shift is, setting by setting: under setting [1], 0.257 °C; under setting [2], -1.28 °C.

As for UniProt Q5R372, the melting temperature shift under setting [1] worked out at 0.29 °C and the melting temperature shift under setting [2] was 0.75 °C.

For RBM4 (UniProt Q9BWF3), the melting temperature shift is 1.38 °C under setting [1] and 0.468 °C under setting [2].

Consider UniProt Q9UMR5, for which the melting temperature shift under setting [1] was -1.64 °C.

Take UniProt Q9P1Y6: under setting [1], the melting temperature shift was -0.307 °C.

For the target CPT1A (UniProt P50416), the melting temperature shift runs as follows: under setting [1], 0.139 °C; under setting [2], 0.289 °C.

Regarding USP16 (UniProt Q9Y5T5), the melting temperature shift by setting is: under setting [1], -1.24 °C; under setting [2], 0.179 °C.

Regarding RPL4 (UniProt P36578), the melting temperature shift under setting [1] stood at 0.789 °C and the melting temperature shift under setting [2] was -0.508 °C.

For the target GALK1 (UniProt P51570), the melting temperature shift under setting [1] is -0.423 °C and the melting temperature shift under setting [2] was -1.7 °C.

Consider DVL2 (UniProt O14641), for which the melting temperature shift is -0.454 °C under setting [1] and 0.124 °C under setting [2].

For the target PEPD (UniProt P12955), the melting temperature shift is -0.164 °C under setting [1] and -0.238 °C under setting [2].

Turning to AAR2 (UniProt Q9Y312), the melting temperature shift reads like this: under setting [1], -0.134 °C; under setting [2], -0.686 °C.

With GPS1 (UniProt Q13098), the melting temperature shift is -0.848 °C under setting [1] and 0.0406 °C under setting [2].

Turning to UniProt Q9H8G2, under setting [1], the melting temperature shift was 2.58 °C.

Turning to UniProt O75446, the melting temperature shift turned out to be 0.315 °C under setting [1] and 0.702 °C under setting [2].

For the target PARP4 (UniProt Q9UKK3), the melting temperature shift reads like this: under setting [1], -0.224 °C; under setting [2], 0.999 °C.

On to QKI (UniProt Q96PU8), for which the melting temperature shift was -0.0993 °C under setting [1] and -0.905 °C under setting [2].

As to SNAPIN (UniProt O95295), the melting temperature shift is -2.11 °C under setting [1] and 0.581 °C under setting [2].

As to MVP (UniProt Q14764), the melting temperature shift is -0.147 °C under setting [1] and 0.218 °C under setting [2].

Turning to ALDH16A1 (UniProt Q8IZ83), the melting temperature shift reads like this: under setting [1], 1.53 °C; under setting [2], -0.366 °C.

For RNF114 (UniProt Q9Y508), the melting temperature shift under setting [1] is -2.18 °C and the melting temperature shift under setting [2] is 1.44 °C.

Source of the values: the supplement of paper PMC10060354, “Discovery of a small molecule ligand of FRS2 that inhibits invasion and tumor growth” (Cellular Oncology, 2022).
